# Assay results taken from the supplement of paper PMC8728848.
# The other results are listed elsewhere or left out.
# Legend:
# Assay in all cases: glycan array binding signal (z-score within array); higher = stronger binding
# Details in all cases: glycan notation: IUPAC condensed, linker removed
# [1] = target: Fuc(a1-2)Gal
# Outline: (§1)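 Glycan array data came from 3228 arrays in the Consortium for Functional Glycomics database, and only arrays with an available protein sequence were kept. Glycan names were put into IUPAC-condensed notation, and columns mapping to the same glycan were averaged. The binding signal is a within-array Z-score, averaged across arrays of one protein sequence run at different concentrations or buffers and across linkers. A negative Z-score can be read as non-binding.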
# [2] = target: Fuc(a1-2)Gal(b1-3)GalNAc
# Outline: as §1
# [3] = target: Fuc(a1-2)Gal(b1-3)GalNAc(a1-3)[Fuc(a1-2)]Gal(b1-4)Glc
# Outline: as §1
# [4] = target: Fuc(a1-2)Gal(b1-3)GalNAc(a1-3)[Fuc(a1-2)]Gal(b1-4)GlcNAc
# Outline: as §1
# [5] = target: Fuc(a1-2)Gal(b1-3)GalNAc(b1-3)Gal
# Outline: as §1
# [6] = target: Fuc(a1-2)Gal(b1-3)GalNAc(b1-3)Gal(a1-4)Gal(b1-4)Glc
# Outline: as §1
# [7] = target: Fuc(a1-2)Gal(b1-3)GalNAc(b1-4)[Neu5Ac(a2-3)]Gal(b1-4)Glc
# Outline: as §1
# [8] = target: Fuc(a1-2)Gal(b1-3)GlcNAc
# Outline: as §1
# [9] = target: Fuc(a1-2)Gal(b1-3)GlcNAc(b1-2)Man(a1-3)[Fuc(a1-2)Gal(b1-3)GlcNAc(b1-2)Man(a1-6)]Man(b1-4)GlcNAc(b1-4)GlcNAc
# Outline: as §1
# [10] = target: Fuc(a1-2)Gal(b1-3)GlcNAc(b1-2)Man(a1-3)[Fuc(a1-2)Gal(b1-3)GlcNAc(b1-2)Man(a1-6)]Man(b1-4)GlcNAc(b1-4)[Fuc(a1-6)]GlcNAc
# Outline: as §1
# [11] = target: Fuc(a1-2)Gal(b1-3)GlcNAc(b1-3)Gal(b1-4)Glc
# Outline: as §1
# [12] = target: Fuc(a1-2)Gal(b1-3)GlcNAc(b1-3)GalNAc
# Outline: as §1
# [13] = target: Fuc(a1-2)Gal(b1-3)GlcNAc(b1-3)[Fuc(a1-2)Gal(b1-3)GlcNAc(b1-6)]GalNAc
# Outline: as §1
# [14] = target: Fuc(a1-2)Gal(b1-3)GlcNAc(b1-3)[Gal(b1-4)GlcNAc(b1-6)]Gal(b1-4)Glc
# Outline: as §1
# [15] = target: Fuc(a1-2)Gal(b1-3)GlcNAc(b1-3)[Neu5Ac(a2-6)Gal(b1-4)GlcNAc(b1-6)]Gal(b1-4)Glc
# Outline: as §1
# [16] = target: Fuc(a1-2)Gal(b1-3)GlcNAc6S
# Outline: as §1
# [17] = target: Fuc(a1-2)Gal(b1-3)[Fuc(a1-4)]GlcNAc
# Outline: as §1
# [18] = target: Fuc(a1-2)Gal(b1-3)[Fuc(a1-4)]GlcNAc(b1-2)Man(a1-3)[Fuc(a1-2)Gal(b1-3)[Fuc(a1-4)]GlcNAc(b1-2)Man(a1-3)]Man(b1-4)GlcNAc(b1-4)GlcNAc
# Outline: as §1
# [19] = target: Fuc(a1-2)Gal(b1-3)[Fuc(a1-4)]GlcNAc(b1-2)Man(a1-3)[Fuc(a1-2)Gal(b1-3)[Fuc(a1-4)]GlcNAc(b1-2)Man(a1-6)]Man(b1-4)GlcNAc(b1-4)[Fuc(a1-6)]GlcNAc(b1-4)[Fuc(a1-6)]GlcNAc
# Outline: as §1
# [20] = target: Fuc(a1-2)Gal(b1-3)[Fuc(a1-4)]GlcNAc(b1-3)[Fuc(a1-3)[Gal(b1-4)]GlcNAc(b1-6)]Gal(b1-4)Glc
# Outline: as §1
# [21] = target: Fuc(a1-2)Gal(b1-3)[Fuc(a1-4)]GlcNAc(b1-3)[Gal(b1-4)GlcNAc(b1-6)]Gal(b1-4)Glc
# Outline: as §1
# [22] = target: Fuc(a1-2)Gal(b1-4)Glc
# Outline: as §1
# [23] = target: Fuc(a1-2)Gal(b1-4)Glc6S
# Outline: as §1
# [24] = target: Fuc(a1-2)Gal(b1-4)GlcNAc
# Outline: as §1
# [25] = target: Fuc(a1-2)Gal(b1-4)GlcNAc(b1-2)Man
# Outline: as §1
# [26] = target: Fuc(a1-2)Gal(b1-4)GlcNAc(b1-2)Man(a1-3)[Fuc(a1-2)Gal(b1-4)GlcNAc(b1-2)Man(a1-6)]Man(b1-4)GlcNAc(b1-4)GlcNAc
# Outline: as §1
# [27] = target: Fuc(a1-2)Gal(b1-4)GlcNAc(b1-2)Man(a1-3)[Fuc(a1-2)Gal(b1-4)GlcNAc(b1-2)Man(a1-6)]Man(b1-4)GlcNAc(b1-4)[Fuc(a1-6)]GlcNAc
# Outline: as §1
# [28] = target: Fuc(a1-2)Gal(b1-4)GlcNAc(b1-2)[Fuc(a1-2)Gal(b1-4)GlcNAc(b1-4)]Man(a1-3)[Fuc(a1-2)Gal(b1-4)GlcNAc(b1-2)Man(a1-6)]Man(b1-4)GlcNAc(b1-4)GlcNAc
# Outline: as §1
# [29] = target: Fuc(a1-2)Gal(b1-4)GlcNAc(b1-3)Gal(b1-4)GlcNAc
# Outline: as §1
# [30] = target: Fuc(a1-2)Gal(b1-4)GlcNAc(b1-3)Gal(b1-4)GlcNAc(b1-2)Man(a1-3)[Fuc(a1-2)Gal(b1-4)GlcNAc(b1-3)Gal(b1-4)GlcNAc(b1-2)Man(a1-6)]Man(b1-4)GlcNAc(b1-4)GlcNAc
# Outline: as §1
binder,measurement,setting,value
ArathEULS3 TAP (Arabidopsis thaliana) (protein) IDENLYFQGGSMDEKTTGWRGGHVVEGLAGELEQLRARLEHHPQGQREPGGGGSLEITSLYKKAGFMEHHHQHHRHHQRDDGEDDRQSFGVPPPHVDAPPQPHGLYQSQPHFDPYAPTPQAPAPYRSETQFEPHAPPPYRSEPYFETPAPPPSFGHVSHVGHQSPNESYPPEHHRYGGYQQPSNSLLESHGDHSGVTHVAHHSSNQPQSSSGVYHKPDENRLPDNLAGLAGRATVKVYSKAEPNYNLTIRDGKVILAPADPSDEAQHWYKDEKYSTKVKDADGHPCFALVNKATGEAMKHSVGATHPVHLIRYVPDKLDESVLWTESKDFGDGYRTIRMVNNTRLNVDAYHGDSKSGGVRDGTTIVLWDWNKGDNQLWKIFPF,glycan array binding signal (z-score),[1],1.07
same,glycan array binding signal (z-score),[2],-0.462
same,glycan array binding signal (z-score),[3],-1.24
same,glycan array binding signal (z-score),[4],-0.451
same,glycan array binding signal (z-score),[5],-1.31
same,glycan array binding signal (z-score),[6],0.136
same,glycan array binding signal (z-score),[7],1.75
same,glycan array binding signal (z-score),[8],0.613
same,glycan array binding signal (z-score),[9],-0.403
same,glycan array binding signal (z-score),[10],1.36
same,glycan array binding signal (z-score),[11],-0.174
same,glycan array binding signal (z-score),[12],0.099
same,glycan array binding signal (z-score),[13],-0.858
same,glycan array binding signal (z-score),[14],0.631
same,glycan array binding signal (z-score),[15],-1.08
same,glycan array binding signal (z-score),[16],1.8
same,glycan array binding signal (z-score),[17],-0.439
same,glycan array binding signal (z-score),[18],-0.065
same,glycan array binding signal (z-score),[19],-0.278
same,glycan array binding signal (z-score),[20],-1
same,glycan array binding signal (z-score),[21],-0.898
same,glycan array binding signal (z-score),[22],-0.52
same,glycan array binding signal (z-score),[23],0.624
same,glycan array binding signal (z-score),[24],0.315
same,glycan array binding signal (z-score),[25],-0.304
same,glycan array binding signal (z-score),[26],-0.08
same,glycan array binding signal (z-score),[27],-0.355
same,glycan array binding signal (z-score),[28],0.023
same,glycan array binding signal (z-score),[29],-0.473
same,glycan array binding signal (z-score),[30],2.35

# Shown bar-delimited: part of the list above.
binder | measurement | setting | value
ArathEULS3 TAP (Arabidopsis thaliana) (protein) IDENLYFQGGSMDEKTTGWRGGHVVEGLAGELEQLRARLEHHPQGQREPGGGGSLEITSLYKKAGFMEHHHQHHRHHQRDDGEDDRQSFGVPPPHVDAPPQPHGLYQSQPHFDPYAPTPQAPAPYRSETQFEPHAPPPYRSEPYFETPAPPPSFGHVSHVGHQSPNESYPPEHHRYGGYQQPSNSLLESHGDHSGVTHVAHHSSNQPQSSSGVYHKPDENRLPDNLAGLAGRATVKVYSKAEPNYNLTIRDGKVILAPADPSDEAQHWYKDEKYSTKVKDADGHPCFALVNKATGEAMKHSVGATHPVHLIRYVPDKLDESVLWTESKDFGDGYRTIRMVNNTRLNVDAYHGDSKSGGVRDGTTIVLWDWNKGDNQLWKIFPF | glycan array binding signal (z-score) | [20] | -1
same | glycan array binding signal (z-score) | [23] | 0.624
